For this data set, the system named is tumor samples of other cancer types. The experiment in a line: LC-MS detection of peptide presentation on other tumor types, normal tissues and cell lines (Table 4A/4B, FIG. 1). The note with it: FIG. 1D, 1L-AE: samples with detection. On the set-up: species or system human.
On to “ALLENPKMEL (listed as Homo sapiens) [SEQ ID NO 441]”, for which the “normal tissues with detectable presentation (which tissues)” value (“normal tissues” for short) is given as 1 adrenal gland.
The same measure for “FLFPNQYVDV (listed as Homo sapiens) [SEQ ID NO 248]”: 1 spleen; for “FLLEDDIHVS (listed as Homo sapiens) [SEQ ID NO 38]”: 1 trachea.
For “KIFEMLEGV (listed as Homo sapiens) [SEQ ID NO 11]”, the “normal tissues” value was 1 brain, 1 lung, 1 ureter.
Turning to “KLDDLTQDLTV (listed as Homo sapiens) [SEQ ID NO 32]”, the “normal tissues” value is recorded as 1 liver.
Take “KLLNKIYEA (listed as Homo sapiens) [SEQ ID NO 620]”: the “normal tissues” value is recorded as 1 lung, 1 uterus.
Under “KTINKVPTV (listed as Homo sapiens) [SEQ ID NO 198]” stands 1 lung.
Turning to “SLFGNSGILENV (listed as Homo sapiens) [SEQ ID NO 479]”, the “normal tissues” value was determined as 1 spleen.
On to “SLMEPPAVLLL (listed as Homo sapiens) [SEQ ID NO 1]”, for which the “normal tissues” value turned out to be 1 lymph node.
The same measure for “VMNDRLYAI (listed as Homo sapiens) [SEQ ID NO 587]”: 1 pancreas, 3 spleens, 1 thyroid gland.

These data come from patent US20170037111A1, “Novel peptides and combination of peptides for use in immunotherapy against ovarian cancer and other cancers” (immatics biotechnologies GmbH, priority 2015, published 2017).
